In the supplement of paper PMC12819154, “High-throughput peptide-centric local stability assay extends protein–ligand identification to membrane proteins, tissues and bacteria” (Nature Structural & Molecular Biology, 2025):
The other results are listed elsewhere or left out. Small differences around the control level are noise.

Amino acid sequences for entries named in this document (tags omitted). A change or cut given only in a name is not applied to a line headed by its entry.
UniProt Q9Y2U5: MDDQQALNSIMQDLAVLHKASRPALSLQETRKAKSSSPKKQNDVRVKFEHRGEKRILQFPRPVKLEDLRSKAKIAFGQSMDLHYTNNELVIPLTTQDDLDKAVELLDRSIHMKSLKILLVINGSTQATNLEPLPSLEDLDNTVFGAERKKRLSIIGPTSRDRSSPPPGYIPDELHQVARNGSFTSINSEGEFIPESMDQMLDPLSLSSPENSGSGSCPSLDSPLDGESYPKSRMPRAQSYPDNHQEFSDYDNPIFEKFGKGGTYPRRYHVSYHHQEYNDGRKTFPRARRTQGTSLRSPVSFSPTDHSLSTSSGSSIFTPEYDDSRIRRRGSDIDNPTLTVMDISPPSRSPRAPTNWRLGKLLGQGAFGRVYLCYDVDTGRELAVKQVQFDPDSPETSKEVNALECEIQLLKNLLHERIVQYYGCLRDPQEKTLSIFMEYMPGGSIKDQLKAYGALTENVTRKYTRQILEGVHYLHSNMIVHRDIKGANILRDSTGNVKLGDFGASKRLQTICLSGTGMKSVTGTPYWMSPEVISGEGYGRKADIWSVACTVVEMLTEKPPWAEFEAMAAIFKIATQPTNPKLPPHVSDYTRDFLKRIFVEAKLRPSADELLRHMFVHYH
UniProt Q9UNF1: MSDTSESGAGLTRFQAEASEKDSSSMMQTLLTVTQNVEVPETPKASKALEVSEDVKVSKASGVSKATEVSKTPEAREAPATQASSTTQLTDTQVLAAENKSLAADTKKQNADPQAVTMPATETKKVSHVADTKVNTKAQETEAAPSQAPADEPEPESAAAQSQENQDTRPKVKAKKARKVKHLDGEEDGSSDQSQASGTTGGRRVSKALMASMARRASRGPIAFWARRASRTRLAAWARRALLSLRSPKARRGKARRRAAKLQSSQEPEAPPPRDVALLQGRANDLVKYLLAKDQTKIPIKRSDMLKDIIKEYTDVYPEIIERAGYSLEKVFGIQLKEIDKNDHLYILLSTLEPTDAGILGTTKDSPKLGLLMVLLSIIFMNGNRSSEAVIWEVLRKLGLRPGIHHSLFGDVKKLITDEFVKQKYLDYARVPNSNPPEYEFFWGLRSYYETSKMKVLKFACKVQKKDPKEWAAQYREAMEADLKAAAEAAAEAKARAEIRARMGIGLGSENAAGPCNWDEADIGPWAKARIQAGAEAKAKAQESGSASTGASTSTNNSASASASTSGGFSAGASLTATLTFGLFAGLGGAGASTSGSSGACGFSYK
UniProt Q9UKL0, whole entry: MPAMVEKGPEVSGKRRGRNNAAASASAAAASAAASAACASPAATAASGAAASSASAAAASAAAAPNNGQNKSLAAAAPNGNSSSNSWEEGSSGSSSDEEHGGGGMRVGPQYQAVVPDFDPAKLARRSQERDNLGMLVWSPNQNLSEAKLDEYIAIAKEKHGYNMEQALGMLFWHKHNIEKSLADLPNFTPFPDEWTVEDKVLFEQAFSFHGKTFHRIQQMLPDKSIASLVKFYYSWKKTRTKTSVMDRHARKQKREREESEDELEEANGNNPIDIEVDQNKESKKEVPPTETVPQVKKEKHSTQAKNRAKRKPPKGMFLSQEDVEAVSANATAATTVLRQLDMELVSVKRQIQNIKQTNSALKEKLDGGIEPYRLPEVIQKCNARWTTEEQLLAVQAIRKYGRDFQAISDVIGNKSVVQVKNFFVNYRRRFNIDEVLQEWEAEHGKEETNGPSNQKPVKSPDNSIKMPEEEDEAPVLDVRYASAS
UniProt Q9Y222: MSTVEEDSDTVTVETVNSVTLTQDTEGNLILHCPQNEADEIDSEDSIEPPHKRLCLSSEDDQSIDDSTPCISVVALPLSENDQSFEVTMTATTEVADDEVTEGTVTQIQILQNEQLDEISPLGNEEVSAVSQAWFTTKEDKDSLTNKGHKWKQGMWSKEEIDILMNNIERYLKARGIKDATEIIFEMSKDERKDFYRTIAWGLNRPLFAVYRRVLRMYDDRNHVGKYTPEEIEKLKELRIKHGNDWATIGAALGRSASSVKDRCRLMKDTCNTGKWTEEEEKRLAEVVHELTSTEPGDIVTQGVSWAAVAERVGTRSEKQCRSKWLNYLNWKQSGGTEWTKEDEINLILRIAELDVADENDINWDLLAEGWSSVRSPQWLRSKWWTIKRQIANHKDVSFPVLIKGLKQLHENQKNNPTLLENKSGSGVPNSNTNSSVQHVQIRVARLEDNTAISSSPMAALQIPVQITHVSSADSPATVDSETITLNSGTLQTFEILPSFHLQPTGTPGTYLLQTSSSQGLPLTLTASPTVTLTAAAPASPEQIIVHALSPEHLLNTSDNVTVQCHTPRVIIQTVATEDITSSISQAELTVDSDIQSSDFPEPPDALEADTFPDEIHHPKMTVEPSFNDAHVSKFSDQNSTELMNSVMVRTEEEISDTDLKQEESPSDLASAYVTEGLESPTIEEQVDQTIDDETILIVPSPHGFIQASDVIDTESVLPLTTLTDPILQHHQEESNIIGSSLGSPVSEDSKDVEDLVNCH
UniProt Q9Y314: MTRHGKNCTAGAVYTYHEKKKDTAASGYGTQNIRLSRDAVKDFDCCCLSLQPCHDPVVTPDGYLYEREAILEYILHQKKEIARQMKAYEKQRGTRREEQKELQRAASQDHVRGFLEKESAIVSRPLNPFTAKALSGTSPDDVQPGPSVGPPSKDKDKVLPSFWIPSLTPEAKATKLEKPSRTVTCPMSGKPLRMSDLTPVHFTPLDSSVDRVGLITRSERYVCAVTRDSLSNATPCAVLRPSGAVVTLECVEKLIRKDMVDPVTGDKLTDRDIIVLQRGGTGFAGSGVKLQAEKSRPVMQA
UniProt Q9UQN3, whole entry: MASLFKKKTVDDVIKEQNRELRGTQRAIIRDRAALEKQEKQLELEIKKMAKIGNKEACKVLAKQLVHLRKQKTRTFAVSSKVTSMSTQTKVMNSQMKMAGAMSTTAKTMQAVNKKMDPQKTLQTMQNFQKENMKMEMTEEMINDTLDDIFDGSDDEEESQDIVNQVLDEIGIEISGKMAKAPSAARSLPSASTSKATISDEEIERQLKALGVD
UniProt Q9UQC2, whole entry: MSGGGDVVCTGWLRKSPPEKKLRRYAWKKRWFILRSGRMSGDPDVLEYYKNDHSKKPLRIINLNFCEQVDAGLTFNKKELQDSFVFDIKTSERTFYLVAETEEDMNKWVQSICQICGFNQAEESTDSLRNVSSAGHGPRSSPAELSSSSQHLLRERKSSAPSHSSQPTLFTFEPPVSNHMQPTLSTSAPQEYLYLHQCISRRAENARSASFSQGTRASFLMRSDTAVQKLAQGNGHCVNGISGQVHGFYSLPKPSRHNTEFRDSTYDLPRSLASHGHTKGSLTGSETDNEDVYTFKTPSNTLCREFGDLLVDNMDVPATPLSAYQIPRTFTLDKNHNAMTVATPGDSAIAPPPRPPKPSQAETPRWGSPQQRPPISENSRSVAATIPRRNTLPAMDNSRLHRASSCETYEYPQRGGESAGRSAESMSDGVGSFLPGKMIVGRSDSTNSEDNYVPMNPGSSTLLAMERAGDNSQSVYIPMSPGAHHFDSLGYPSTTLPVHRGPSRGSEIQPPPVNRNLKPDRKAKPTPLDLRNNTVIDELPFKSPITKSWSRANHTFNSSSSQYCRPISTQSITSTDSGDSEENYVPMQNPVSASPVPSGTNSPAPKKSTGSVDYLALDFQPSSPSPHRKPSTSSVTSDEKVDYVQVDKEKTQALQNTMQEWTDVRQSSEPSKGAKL

Compound: CN[C@@H]1C[C@H]2O[C@@](C)([C@@H]1OC)n1c3ccccc3c3c4c(c5c6ccccc6n2c5c31)C(=O)NC4 [staurosporine]
Test: log2 fold change of tryptic peptide abundance, ligand vs vehicle (limited proteolysis) (log2 ratio); higher = more trypsin-susceptible (destabilized)
Conditions: ligand concentration: 20 uM; sample: K562 cleared lysate; digestion: 4 min, 22 C (HT-PELSA RT4min, Orbitrap Astral)

Target	log2 fold change
UniProt Q9Y2U5 (peptide sequence: AYGALTENVTR, peptide start residue: 451)	-0.427
UniProt Q9UL18 (peptide sequence: LFCADKNER, peptide start residue: 713)	0.463
MAGED2 (peptide sequence: ALMASMAR, peptide start residue: 208) (UniProt Q9UNF1)	-0.188
RCOR1 (peptide sequence: IQQMLPDKSIASLVK, peptide start residue: 217) (UniProt Q9UKL0)	0.141
DMTF1 (peptide sequence: GIKDATEIIFEMSKDER, peptide start residue: 176) (UniProt Q9Y222)	0.736
NOSIP (peptide sequence: EAILEYILHQK, peptide start residue: 68) (UniProt Q9Y314)	-0.212
CHMP2B (peptide sequence: TMQAVNKK, peptide start residue: 108) (UniProt Q9UQN3)	0.166
GAB2 (peptide sequence: ANHTFNSSSSQYCR, peptide start residue: 552) (UniProt Q9UQC2)	0.96
